Data published in PubChem BioAssay AID493014 (National Center for Advancing Translational Sciences (NCATS), 2011).
This is one part of the list. Further columns of the screen follow, without active or inactive calls. The list favours compounds with an active or inconclusive main result. Potencies come from curve fits of mixed quality, noted in brackets.

Experiment: qHTS Assay to Find Inhibitors of Chronic Active B-Cell Receptor Signaling
Conditions: ABC-DLBCL IkBa-CBG/CBR reporter, luminescence ratio (green luciferase fused to IkBa over red control in TMD8 lymphoma cells), 4 h
Procedure, shortened: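 TMD8 ABC-DLBCL cells carrying doxycycline-inducible green luciferase fused to IkappaBalpha plus unfused red luciferase were exposed to compounds (up to 46 uM) for 4 hrs at 37C. Activity came from the overlap-corrected green/red luminescence ratio.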

[1] = measured here: CBR red luminescence, cell number

SMILES	AC50 [1]	AC50 (measured here: IkBa-CBG green luminescence)
CCC(=O)Nc1cccc(-c2nc3cc(C)ccc3o2)c1	35.5 µM [falling, single point]	
CC(=O)NC(Cc1ccccc1F)C(=O)NC1CCN(C(=O)NCc2ccccc2)CC1 (stereo not given)	12.6 µM [rising, partial curve, poor fit]	
Cc1cccc([C@@H]2[C@@H]3C(=O)N(Cc4ccccc4)C(=O)[C@@H]3[C@]3(Cc4ccccc4)C(=O)N(c4ccc(C(F)(F)F)cc4)C(=O)N23)c1	1.3 µM [falling, full curve]	
CC(C)(C)OC(=O)N[C@H](C(=O)OC(C)(C)C)c1ccc2c(c1)OCO2	2.06 µM [rising, partial curve, poor fit]	
Cc1ccc2c(c1)nnn2C1CCN(S(=O)(=O)c2ccc(C(=O)N3C(C)CCCC3C)cc2)CC1 (stereo not given)	12.6 µM [falling, partial curve]	
CCOC(=O)CCC(=O)N1CCOCCOCCN(C(=O)CCC(=O)OCC)CCOCCOCC1	18.4 µM [rising, single point]	
CCC(=O)Nc1ccc2nc(C)n(Cc3ccccc3Cl)c(=O)c2c1	29.1 µM [rising, single point]	
O=C(Nc1cccc2ncccc12)c1cccc(Br)c1	15.8 µM [rising, single point]	
O=C(Nc1ccc(O)cc1)c1ccc(C(=O)c2ccccc2)o1	4.47 µM [falling, full curve]	
N#Cc1c(NC(=O)c2ccc([N+](=O)[O-])o2)sc2c1CCC2	2.24 µM [falling, full curve]	
O=C(NC(=S)NNC(=O)c1ccccc1F)c1cccnc1	35.5 µM [falling, single point]	
CCN(CC)C(=O)[C@H]1CC(CC(=O)NCCCOC)C(=O)N2CCc3c([nH]c4ccccc34)[C@]12C (stereo not given in full)	4.11 µM [rising, single point]	
O=C(NNC(=S)NC1CCCCC1)c1ccc(Cl)s1	7.08 µM [falling, partial curve, poor fit]	
Cc1ccc(-c2nnc(-c3ccccc3Br)o2)cc1	2.24 µM [rising, partial curve, poor fit]	
O=C(NNC(=O)c1cc(Cl)ccc1O)c1ccc(NS(=O)(=O)c2cccs2)cc1	9.2 µM [falling, partial curve]	
COc1cc(OC)cc(C(=O)Nc2ccc(Cn3ccnc3)cc2)c1	35.5 µM [falling, single point]	
COc1ccc(C2=Nn3c([n+](C)c4ccccc43)SC2)cc1	1.58 µM [rising, full curve, poor fit]	
Cc1ccc(/C=C2\SC(=S)N(CCC(=O)NNC(=O)c3ccncc3)C2=O)cc1	35.5 µM [falling, single point]	
CC(C#N)(NC(=O)COC(=O)c1ccccc1NCCO)C1CC1 (stereo not given)	25.9 µM [falling, single point]	
COc1cccc(CC(C(=O)Nc2cc(C)ccc2C)c2nn[nH]n2)c1OC (stereo not given)	0.708 µM [falling, partial curve, poor fit]	

SMILES	AC50 [1]	AC50 (measured here: IkBa-CBG green luminescence)
Cn1c(SCc2c(F)cccc2Cl)nnc1-c1cccs1	13 µM [falling, single point]	
Cc1cs/c(=N\N=C2CCCCC2)n1Cc1ccco1		15.8 µM [falling, partial curve, poor fit]
COc1ccc(CN2CCS(=O)(=O)CC2)cc1OC	6.31 µM [rising, partial curve, poor fit]	
CC(Sc1n[nH]c(-c2ccccc2)n1)C(=O)c1c(N)n(C)c(=O)n(C)c1=O (stereo not given)	32.6 µM [rising, partial curve, poor fit]	
Cc1c(C)c2ccc(OCC(=O)N3CCC(C(=O)O)CC3)cc2oc1=O	10 µM [falling, partial curve, poor fit]	
Cc1cc(C(=O)N/N=C/c2ccc[nH]2)n[nH]1	29.1 µM [falling, partial curve, poor fit]	
S=c1[nH]c(-c2ccccc2)cn1/N=C/c1ccccc1Br	12.6 µM [falling, partial curve]	
C=CCn1cc(CN2CCC(C(=O)Nc3cccc(-c4cccc(Cl)c4)c3)CC2)c(C)n1	11.2 µM [falling, partial curve]	
CC(=O)Nc1cccc(-c2csc(NCc3ccco3)n2)c1	0.231 µM [rising, full curve, poor fit]	
O=C1C2CCCN2C(c2cccs2)N1c1ccc(Cl)cc1 (stereo not given)	12.6 µM [rising, partial curve]	
CCNS(=O)(=O)c1ccc(NS(=O)(=O)c2cc(C)ccc2C)cc1	29.1 µM [falling, single point]	
COc1cccc(C(=O)Nc2ccccc2)c1	8.91 µM [falling, partial curve, poor fit]	
O=C(Nc1c2c(nn1-c1ccccc1)CS(=O)(=O)C2)c1ccc2c(c1)OCO2	3.98 µM [rising, full curve, poor fit]	
Cc1cc(C)nc(NC(=O)c2cc(-c3ccc4c(c3)OCO4)nc3ccccc23)c1	0.794 µM [rising, full curve, poor fit]	
O=c1c(Cl)c(N/N=C/c2ccc(Br)cc2)cnn1-c1ccccc1	16.4 µM [rising, single point]	
C=CC[C@H](CC(=O)N(CCO)Cc1ccccc1)C(=O)N[C@H](COC(=O)[C@@H](CC=C)CC(=O)OC(C)(C)C)Cc1c[nH]c2ccccc12	29.1 µM [falling, single point]	
Cc1cccc(COc2ccccc2C(=O)OCC(=O)N(C)c2c(N)n(Cc3ccccc3)c(=O)[nH]c2=O)c1	12.6 µM [falling, single point]	
COc1ccccc1CNc1ncnc2c1nnn2C	22.4 µM [falling, single point]	
COc1ccc(C2C(C(=O)c3ccco3)=C(O)C(=O)N2CCN2CCOCC2)c(OC)c1 (stereo not given)	2.82 µM [rising, full curve, poor fit]	
CC(=O)Nc1ccc(S(=O)(=O)NCC(=O)OCC(=O)NCc2ccc3c(c2)OCO3)cc1	5.8 µM [rising, partial curve, poor fit]	

Record cards (already shown):
COc1ccc(CN2CCS(=O)(=O)CC2)cc1OC is entered as AC50 [1]: 6.31 µM [rising, partial curve, poor fit]
CC(=O)NC(Cc1ccccc1F)C(=O)NC1CCN(C(=O)NCc2ccccc2)CC1 (stereo not given) is entered as AC50 [1]: 12.6 µM [rising, partial curve, poor fit]
Cc1ccc(/C=C2\SC(=S)N(CCC(=O)NNC(=O)c3ccncc3)C2=O)cc1 is entered as AC50 [1]: 35.5 µM [falling, single point]
